For 62 compounds, AC50 results are on record in PubChem BioAssay AID445 (National Center for Advancing Translational Sciences (NCATS), 2006).

This is one part of the list. Further columns of the screen follow, without active or inactive calls. The list favours compounds with an active or inconclusive main result. Words in brackets tell the shape of the fitted curve; partial curves, single points and poor fits give uncertain potencies.

The experiment in a line: IkB Signaling. As to conditions: ABC-DLBCL IkBa-CBG/CBR dual luciferase ratio (green luciferase fused to IkBa over red control in OCI-Ly3 lymphoma cells), 4 h. Put shortly:
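In this assay, an IκBα–CBG68 fusion accumulates when IKK-driven degradation is blocked; native CBR normalizes for cell number. OCI-Ly3 cells were treated 4 h with compound and doxycycline, then green and red light read after Chroma-Glo addition.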

[1] abbreviates: measured here: control luc red channel unless noted.

On to `CC(C)CN(CCCNC(=O)CN1C(=O)CSc2ccc(S(=O)(=O)N3CCOCC3)cc21)CC(C)C`, for which the AC50 under setting [1] is 0.398 µM [falling, full curve, poor fit].

With `CCc1ccccc1N1C(=O)N(Cc2ccccc2C)c2ccccc2S1(=O)=O`, the AC50 under setting [1] is 12.6 µM [falling, partial curve].

For `CCOC(=O)C1CCN(C(=O)C2CCN(c3nc4ccc(OC)cc4s3)CC2)CC1`, the AC50 under setting [1] is 15.8 µM [falling, partial curve].

With `COc1ccc(OC)c2sc(N3CCN(C(=O)C4CC4)CC3)nc12`, under setting [1], the AC50 was 1 µM [rising, full curve].

In the case of `COc1ccc(OC)c(-n2cnc3cc(C(=O)NC4CCCCCC4)ccc32)c1`, under setting [1], the AC50 was 20 µM [falling, partial curve].

With `COc1ccccc1NC(=O)c1cnc(SCC(=O)N2CCCc3ccccc32)n(C)c1=O`, the AC50 under setting [1] was 7.94 µM [falling, partial curve].

Turning to `Cc1cccc2sc(NC(=O)CN(C)S(=O)(=O)c3ccc(Br)s3)nc12`, under setting [1], the AC50 was 7.94 µM [falling, partial curve].

Take `CCOc1ccc(-c2csc(NC(=O)C3CCCO3)n2)cc1` (stereo not drawn): the AC50 under setting [1] was 20 µM [falling, single point].

In the case of `COC(=O)c1c(Oc2ccc(C(C)=O)cc2)nnc(-c2ccccc2)c1-c1ccccc1`, the AC50 under setting [1] is 15.8 µM [falling, partial curve].

On to `Cc1ccc(NC(=O)Cn2cc3c(n2)CCCCC3)cc1`, for which the AC50 under setting [1] was 5.01 µM [rising, partial curve].

For the compound `COC(=O)CS(=O)(=O)c1nnc([C@H](Cc2ccccc2)NC(=O)OC(C)(C)C)o1`, the AC50 under setting [1] was 12.6 µM [falling, partial curve].

On to `O=C(Nc1ccc(Cl)cc1Cl)c1cc(S(=O)(=O)N2CCc3ccccc32)ccc1F`, for which, under setting [1], the AC50 is 12.6 µM [falling, partial curve].

With `CCc1ccc(C2CC(=O)Nc3cc4c(cc32)OCO4)cc1` (stereo not drawn), under setting [1], the AC50 was 25.1 µM [falling, partial curve].

On to `Cc1cccc(N2CCN(C(=O)c3c(C)oc4ncnc(N5CCCCC5)c34)CC2)c1C`, for which the AC50 under setting [1] was 31.6 µM [falling, partial curve].

Regarding `Cc1ccc(/C=C/c2nc3ccccc3[nH]2)cc1`, the AC50 under setting [1] was 5.01 µM [falling, partial curve].

With `CC(C)COc1ccc(C(=O)N(Cc2ccc(N(C)C)cc2)Cc2ccco2)cc1`, under setting [1], the AC50 was 31.6 µM [falling, partial curve].

In the case of `CC1CCCCN1c1nnc(NC(=O)Nc2ccccc2F)s1` (stereo not drawn), under setting [1], the AC50 is 15.8 µM [falling, partial curve].

In the case of `CCC(c1nnnn1Cc1ccccc1)N(Cc1ccco1)Cc1cc2cc(OC)ccc2[nH]c1=O` (stereo not drawn), under setting [1], the AC50 is 5.01 µM [rising, partial curve] [measured here: IkB-luc green channel].

With `CCn1c(C)nc2c(=O)oc3ccccc3c21`, the AC50 under setting [1] was 31.6 µM [falling, single point].

For `CC1CCCN(C(=O)c2cc3c(Cl)nc4ccccc4c3s2)C1` (stereo not drawn), the AC50 under setting [1] is 25.1 µM [falling, partial curve].

For `O=C(c1ccco1)c1cn(CCOc2ccc(F)cc2)c2ccccc12`, the AC50 under setting [1] is 5.01 µM [falling, partial curve].

In the case of `Cc1ccc(OCc2nc3ccccc3n2CCOc2ccc(Cl)cc2)cc1`, the AC50 under setting [1] was 3.98 µM [falling, full curve].

For `CCc1cccc(CC)c1NC(=O)CN1C(=O)C(=O)c2ccccc21`, the AC50 was 2.51 µM [rising, full curve, poor fit] (measured here: IkB-luc green channel) and 0.794 µM [rising, full curve] (measured here: control luc red channel).

As to `CC(C)c1ccc(NC(=O)Cn2c(=O)n(CCc3ccccc3)c(=O)c3ccccc32)cc1`, the AC50 under setting [1] is 3.98 µM [falling, full curve, poor fit].

Turning to `O=S(=O)(c1ccc(Oc2ncnc3scc(-c4ccccc4)c23)cc1)N1CCOCC1`, under setting [1], the concentration at half-maximal activity (AC50) was 10 µM [falling, partial curve].

For the compound `Cc1ccc(C(=O)Nc2cccc(-c3nc4ccccc4o3)c2)c(Cl)c1`, under setting [1], the AC50 is 6.31 µM [falling, partial curve].

Consider `Cc1ccc(-c2nnc(Nc3cccc(O)c3)c3ccccc23)cc1S(=O)(=O)N1CCN(C)CC1`, for which, under setting [1], the AC50 is 25.1 µM [falling, partial curve].

Consider `Cc1ccccc1OCC(O)Cn1c(=N)n(CCN2CCCCC2)c2ccccc21` (stereo not drawn), for which the half-maximal activity concentration (AC50) under setting [1] was 12.6 µM [falling, partial curve].

For the compound `COc1ccc(OC)c(NC(=O)c2c(NCc3cccs3)sc3c2CCCC3)c1`, under setting [1], the AC50 was 3.98 µM [rising, partial curve, poor fit].

Take `Cc1ccc(Cn2c(=O)n(CCCC(=O)NCc3ccccc3Cl)c(=O)c3ccccc32)cc1`: the AC50 under setting [1] is 0.398 µM [rising, full curve].

With `COC(=O)c1cnc(N2CCN(c3ccccc3F)CC2)c2ccccc12`, under setting [1], the AC50 was 3.98 µM [falling, partial curve].

With `COCCN1C(=O)c2[nH]nc(-c3cc(C)ccc3O)c2C1c1ccc(C(C)C)cc1` (stereo not drawn), under setting [1], the AC50 was 39.8 µM [falling, single point].

As to `Cc1cccc(N2CCN(C(=O)CCc3c(C)nc4ncnn4c3C)CC2)c1C`, the AC50 under setting [1] was 10 µM [falling, partial curve].

For `CCc1ccccc1NC(=O)c1cc(S(=O)(=O)N2CCCC2)cn1C`, the AC50 under setting [1] is 39.8 µM [falling, single point].

As to `O=C(Cc1ccccc1)Nc1cccc(-c2cn3cccnc3n2)c1`, the AC50 under setting [1] is 6.31 µM [rising, single point].

Consider `Cc1cccc(C)c1-n1ncc(C(=O)N2CCN(c3ccccc3)CC2)c1C1CCN(C(=O)OC(C)(C)C)CC1`, for which, under setting [1], the AC50 was 15.8 µM [falling, partial curve].

As for `O=C(c1ccc(CSc2nc3ccncc3n2Cc2cccc(F)c2)cc1)N1CCCCCC1`, the AC50 under setting [1] was 15.8 µM [falling, partial curve].

For `Cc1cncn1CCc1nc2c3ccccc3nc(SCC(=O)Nc3cccc(Cl)c3)n2n1`, the AC50 under setting [1] is 39.8 µM [falling, single point].

`O=c1c(Cc2ccccc2O)c(O)nc2n1CCCS2`: the AC50 under setting [1] is 5.01 µM [falling, partial curve].

For `CN(C(=O)CSc1cn(CC(=O)N2CCOCC2)c2ccccc12)c1ccccc1`, the AC50 under setting [1] is 39.8 µM [falling, single point].

For the compound `Cn1c(C(=O)Nc2ccc3c(c2)OCCO3)cc2sccc21`, the AC50 under setting [1] was 31.6 µM [falling, single point].

For `CCCN(C(=O)c1noc2c1COc1ccc(C)cc1-2)c1ccc(Cl)c(Cl)c1`, under setting [1], the AC50 is 0.01 µM [rising, full curve, poor fit].

Consider `COc1cc(NC(=O)CC2C(=O)N(c3cccc(C)c3)C(=O)N2Cc2ccc(F)cc2)cc(OC)c1` (stereo not drawn), for which the AC50 under setting [1] was 5.01 µM [falling, partial curve].

For `CC1=C(C#N)C(c2cn(-c3ccccc3)nc2-c2cccs2)C(C#N)=C(C)N1`, the AC50 under setting [1] was 20 µM [falling, partial curve].

On to `COc1cc(NS(=O)(=O)c2ccc3[nH]c4c(c3c2)CCCCCC4)cc(OC)c1`, for which the AC50 under setting [1] was 25.1 µM [falling, single point].

Consider `CCc1ccc(NC(=O)C(CC)n2c(=O)c(C(F)(F)F)nc3ccccc32)cc1` (stereo not drawn), for which the AC50 under setting [1] is 25.1 µM [falling, partial curve, poor fit].

On to `Cc1nc2nc(SCC(=O)NCc3ccccc3Cl)nn2c(C)c1Cc1ccccc1`, for which the AC50 under setting [1] is 15.8 µM [falling, partial curve].

As for `CCOC(=O)Cn1c(=O)c2c(nc3n2CCN3c2ccc(CC)cc2)n(C)c1=O`, the AC50 under setting [1] is 12.6 µM [falling, partial curve].

For `Cc1ccc(-c2nnc(Nc3ccc(O)cc3)c3ccccc23)cc1S(=O)(=O)N1CCOCC1`, under setting [1], the AC50 was 6.31 µM [falling, partial curve].

Turning to `COc1ccc(-c2cc(C(=O)Nc3c(C)nn(Cc4ccc(C)cc4)c3C)no2)cc1OC`, under setting [1], the half-maximal activity concentration (AC50) was 20 µM [falling, single point].

Turning to `COc1cccc(NS(=O)(=O)c2ccc(-c3cc(C)no3)s2)c1`, under setting [1], the AC50 is 39.8 µM [rising, single point].

Turning to `Cc1ccc(NC(=O)CSc2cn(CC(=O)N3CCCCCC3)c3ccccc23)cc1`, the AC50 under setting [1] is 10 µM [falling, partial curve].

For the compound `Cc1cccc(N2CCN(C(=O)c3cnn(-c4cccc(Cl)c4C)c3C3CCNCC3)CC2)c1C`, under setting [1], the AC50 was 39.8 µM [falling, partial curve, poor fit].

As for `O=C(NCC(c1cccnc1)N1CCc2ccccc2C1)C(=O)Nc1ccc(Cl)cc1` (stereo not drawn), the AC50 under setting [1] was 5.01 µM [falling, partial curve].

Consider `Cc1ccc(-c2noc(CSc3nnc(Cc4ccccc4)n3-c3cccc(C)c3)n2)cc1`, for which, under setting [1], the AC50 was 15.8 µM [falling, partial curve].

As for `CCCc1nc2ccccc2n2c(-c3ccc(C)cc3)c3c(=O)n(C)c(=O)n(C)c3c12`, the AC50 under setting [1] was 25.1 µM [falling, partial curve].

As to `CC(C)c1ccc(NC(=O)c2cccc3c2C(=O)N(C2CCCCC2)C3)cc1`, the AC50 under setting [1] is 2.51 µM [falling, full curve].

For the compound `CC(=O)c1cccc(NC(=O)c2c(N3CCCC3=O)c3cc(F)ccc3n2C)c1`, under setting [1], the AC50 is 31.6 µM [falling, single point].

As for `CCOCCCNC(=O)C(c1ccc(C)cc1)N(Cc1cccs1)C(=O)c1ccc(NC(C)=O)cc1` (stereo not drawn), the AC50 under setting [1] is 10 µM [falling, partial curve].

For `CCSc1ncc(Cl)c(C(=O)Nc2c(C(=O)c3ccc(C)c(F)c3)oc3ccccc23)n1`, under setting [1], the AC50 was 0.126 µM [rising, partial curve, poor fit].

As to `CCN(CC)C(=O)c1sc2c(c1C)c(=O)n(Cc1ccccc1)c(=O)n2Cc1ccc(Cl)cc1`, the AC50 under setting [1] was 12.6 µM [falling, partial curve, poor fit].

On to `O=C(CCS(=O)(=O)c1nc(-c2ccc3c(c2)OCO3)cc(C(F)(F)F)n1)Nc1ccccc1F`, for which the AC50 under setting [1] was 12.6 µM [falling, partial curve].

The AC50 is the midpoint of the concentration-response curve, whichever way the signal moves.
